Reference: patent publication US20090280108A1, “SERUM AMYLOID A PROTEIN IN INFLAMMATION AND OBESITY” (priority 2004, published 2009)
“Also recorded” adds a separate entry of the source. For at least one compound, name, drawing or mass did not settle the structure.

What was measured:
[1] = test system: serum A-SAA; assay: Rosiglitazone study: serum A-SAA levels in nondiabetic human subjects (ELISA); assay type: in vivo; conditions: n=8, rosiglitazone 4 mg/day for four weeks then 8 mg/day for eight weeks, before vs after
[2] = test system: adipose tissue secretion of A-SAA; assay: Rosiglitazone study: ex vivo A-SAA secretion from subcutaneous abdominal fat biopsies of treated subjects; assay type: in vivo, human; conditions: fat biopsies from the same subjects, n=7; before vs after 3 months of rosiglitazone; about 3 hours incubation

CN(CCOc1ccc(CC2SC(=O)NC2=O)cc1)c1ccccn1 (centres unmarked) [rosiglitazone]
serum A-SAA levels after treatment [1]: greatly reduced; also recorded: significantly decreased | adipose tissue secretion of A-SAA (ex vivo) [2]: significantly reduced; also recorded: significantly decreased
